# Several values for one entry are separate records, joined by “and”; a condition that tells them apart may be missing. Identical values can stand only once. This list was built around the results that the source calls inconclusive (neither active nor inactive); the mix of calls is not that of the screen. For some assays here: Potencies of inconclusive entries are doubtful fits and often do not repeat. More than one record can exist for a structure, and the calls need not agree. Activity calls are given as the source filed them. Rule for the calls: active = hit-call score of the fitted dose curve at least 0.9, where 1 is the maximum; inconclusive = response in the unintended direction; inactive = score below 0.9.
# Sequences of proteins named here, by UniProt entry; tags and fusion partners are left off.
# UniProt P04637, whole entry, looked up: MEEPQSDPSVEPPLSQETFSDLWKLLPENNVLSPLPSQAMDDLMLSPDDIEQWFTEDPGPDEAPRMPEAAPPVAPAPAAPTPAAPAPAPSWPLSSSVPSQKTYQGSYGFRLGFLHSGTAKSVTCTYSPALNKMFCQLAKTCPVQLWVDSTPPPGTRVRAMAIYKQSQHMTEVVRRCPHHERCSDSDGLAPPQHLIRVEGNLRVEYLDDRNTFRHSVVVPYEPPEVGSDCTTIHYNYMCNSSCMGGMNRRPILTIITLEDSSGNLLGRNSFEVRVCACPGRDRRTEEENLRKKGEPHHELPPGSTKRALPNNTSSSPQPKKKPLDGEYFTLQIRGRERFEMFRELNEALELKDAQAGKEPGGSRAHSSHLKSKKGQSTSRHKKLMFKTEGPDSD
# Key:
# [1] = TOX21_p53_BLA_p4_viability: Viability Assessment in the Tox21 HCT-116 p53 Agonism Beta-lactamase Assay, Phase 4 (AID 2283597);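 note: hits lower the luminescence signal meaning cytotoxicity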
# Outline: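 Viability is taken as cellular ATP: after 16 h compound exposure of HCT116 cells and a 2 h room-temperature CCF4-AM substrate step, CellTiter-Glo reagent is added and luminescence is measured 30 min later.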
# [2] = molecular target: Cellular tumor antigen p53 (Homo sapiens) (UniProt P04637); assay: TOX21_p53_BLA_p5_ratio: Tox21 HCT-116 p53 Agonism Beta-lactamase Assay, Ratio, Phase 5 (AID 2283599)
# Outline: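 HCT-116 cells carrying a p53-inducible beta-lactamase reporter were seeded at 4000 cells/well and dosed after 5 h with compound in DMSO (217-fold dilution). After 16 h at 37C, CCF4-AM substrate was added for 2 h, and the 460/530 nm emission ratio was scored as gain-of-signal versus DMSO.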
# [3] = TOX21_p53_BLA_p5_viability: Viability Assessment in the Tox21 HCT-116 p53 Agonism Beta-lactamase Assay, Phase 5 (AID 2283600)
# Outline: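 Viability is taken from cellular ATP content, measured by luciferase luminescence in the same wells after the beta-lactamase ratio read. Cells are seeded at 4000 per well and exposed to DMSO-dissolved compounds, diluted 217-fold, for 16 h.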
# [4] = molecular target: Cellular tumor antigen p53 (Homo sapiens) (UniProt P04637); assay: TOX21_p53_BLA_p4_ratio: Tox21 HCT-116 p53 Agonism Beta-lactamase Assay, Ratio, Phase 4 (AID 2283601)
# Outline: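 HCT116 cells carrying an inducible beta-lactamase reporter were plated at 4000 cells/well, rested 5 h, then exposed to compounds in DMSO (217-fold dilution) for 16 h at 37C. CCF4-AM substrate was loaded 2 h at room temperature; 460/530 nm emission ratio scored gain-of-signal versus DMSO.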
# [5] = Tanguay_ZF_120hpf_OTIC_legacy: (Legacy) Oregon State University Tanguay Lab 120 Hour Post-fertilization zebrafish Assay for Otic Vesicle Malformation (AID 2283639)
# Outline: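 Statically exposed wild-type 5D zebrafish embryos, kept sealed and dark at 28C through 120 hours post fertilization, were examined by brightfield microscopy for otic vesicle defects. Responses were recorded as present or absent and analysed relative to DMSO.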
smiles,measurement,setting,value
COC(=O)/C=C/C(C)=C\C=C\C(C)=C\C=C\C=C(C)\C=C\C=C(C)\C=C\C(=O)O,outcome,[1],inactive
same,outcome,[2],inactive
same,AC50,[3],inconclusive: 46.1 µM
same,AC50,[4],inconclusive: 46.1 µM
CC(C)(c1cc(Br)c(OCCO)c(Br)c1)c1cc(Br)c(OCCO)c(Br)c1,AC50,[1],active: 53.1 µM
same,AC50,[2],active: 40.1 µM
same,AC50,[3],active: 60.1 µM
same,AC50,[4],active: 50.1 µM
CC(C=O)Cc1ccc(C(C)C)cc1 (configuration not stated),outcome,[1],inactive
same,outcome,[2],inactive
same,outcome,[3],inactive
same,AC50,[4],inconclusive: 70 µM
CCCCNC(=O)NS(=O)(=O)c1ccc(N)cc1,AC50,[1],inconclusive: 46.1 µM and inconclusive: 23 µM
same,AC50,[2],inconclusive: 46.1 µM
same,outcome,[3],inactive
same,outcome,[4],inactive
CC(=O)OCC(=O)[C@@]12N=C(C)O[C@@H]1C[C@H]1[C@@H]3CCC4=CC(=O)C=C[C@]4(C)[C@H]3[C@@H](O)C[C@@]12C,AC50,[1],inconclusive: 46.1 µM
same,AC50,[2],inconclusive: 46.1 µM and inconclusive: 23 µM
same,AC50,[3],inconclusive: 23 µM
same,AC50,[4],inconclusive: 23 µM
N[C@@H](Cc1cc(I)c(Oc2cc(I)c(O)c(I)c2)c(I)c1)C(=O)O,AC50,[1],active: 37 µM
same,AC50,[2],inconclusive: 31.6 µM and active: 39.3 µM
same,AC50,[3],inconclusive: 31.6 µM
same,AC50,[4],active: 39.8 µM
CCCOC(=O)c1c(Cl)c(Cl)c(Cl)c(Cl)c1C(=O)OCCC,AC50,[1],inconclusive: 46.1 µM
same,AC50,[2],inconclusive: 73.3 µM
same,AC50,[3],inconclusive: 1.61 µM
same,AC50,[4],inconclusive: 46.1 µM
CCCCCNCCCCC,AC50,[1],inconclusive: 46.1 µM and inconclusive: 47 µM
same,AC50,[2],inconclusive: 46.1 µM
same,AC50,[3],inconclusive: 46.1 µM and inconclusive: 47 µM
same,AC50,[4],inconclusive: 47 µM
Cc1ccc(C)c(S(=O)(=O)O)c1,outcome,[1],inactive
same,AC50,[2],inconclusive: 42.5 µM and inconclusive: 46.1 µM
same,AC50,[3],inconclusive: 46.1 µM
same,AC50,[4],inconclusive: 46.1 µM
c1ccc(Nc2cccc3ccccc23)cc1,AC50,[1],active: 43.6 µM and active: 82.6 µM
same,AC50,[2],active: 82.2 µM
same,outcome,[3],inactive
same,AC50,[4],active: 74.3 µM
CC(=O)c1nccs1,AC50,[1],inconclusive: 46.1 µM and inconclusive: 83.5 µM
same,outcome,[2],inactive
same,AC50,[3],inconclusive: 46.1 µM and inconclusive: 157 nM
same,AC50,[4],inconclusive: 47.4 µM
COc1ccc(CCN2CCC(Nc3nc4ccccc4n3Cc3ccc(F)cc3)CC2)cc1,AC50,[1],active: 14.4 µM and active: 23 µM
same,AC50,[2],active: 38.8 µM and active: 42.9 µM
same,AC50,[3],active: 25.7 µM and active: 40.5 µM
same,AC50,[4],active: 32.5 µM and active: 43.3 µM
Cc1cc(O)c(Cl)c(C)c1Cl,AC50,[1],active: 61.7 µM
same,AC50,[2],active: 77.1 µM
same,AC50,[3],active: 70.1 µM
same,AC50,[4],active: 74.9 µM
CCCc1c(OCCCOc2ccc(OCC(=O)O)cc2)ccc(C(C)=O)c1O,AC50,[1],active: 46.1 µM
same,AC50,[2],active: 66.6 µM
same,AC50,[3],active: 65.8 µM
same,AC50,[4],active: 69.2 µM
N#CCN(CC#N)CCN(CC#N)CC#N,AC50,[1],inconclusive: 46.1 µM
same,AC50,[2],inconclusive: 37.8 µM
same,outcome,[3],inactive
same,AC50,[4],inconclusive: 46.1 µM
COc1ccccc1NC(=O)c1cc2ccccc2cc1O,outcome,[1],inactive
same,outcome,[2],inactive
same,outcome,[3],inactive
same,AC50,[4],active: 36.1 µM
CCc1ccc(O)c(OC)c1,AC50,[1],inconclusive: 46.1 µM
same,outcome,[2],inactive
same,AC50,[3],inconclusive: 46.1 µM
same,AC50,[4],inconclusive: 83.4 µM
CNC[C@H](O)[C@@H](O)[C@H](O)[C@H](O)CO,AC50,[1],inconclusive: 46.1 µM and inconclusive: 0.224 nM
same,AC50,[2],inconclusive: 23 µM
same,outcome,[3],inactive
same,AC50,[4],inconclusive: 46.1 µM
CN(C)CCOc1ccc(/C(=C(/CCCl)c2ccccc2)c2ccccc2)cc1,AC50,[1],active: 49.8 µM and active: 37 µM
same,AC50,[2],active: 74 µM
same,AC50,[3],active: 59.8 µM
same,AC50,[4],active: 72.9 µM and active: 39 µM
CCCCCCCCCC(C)=O,AC50,[1],inconclusive: 0.000166 µM
same,outcome,[2],inactive
same,AC50,[3],inconclusive: 3.45e-05 µM
same,AC50,[4],inconclusive: 46.8 µM
CCCCCCCCCCCCCC[n+]1ccccc1,AC50,[1],active: 13.3 µM
same,outcome,[2],inactive
same,outcome,[3],inactive
same,AC50,[4],active: 21.6 µM
CCCCCCOC(=O)CCCCC(=O)OCCCCCC,outcome,[1],inactive
same,AC50,[2],inconclusive: 46.1 µM
same,AC50,[3],inconclusive: 9.7e-05 µM
same,AC50,[4],inconclusive: 30 µM
CC1CC(O)CC(C)(C)C1 (configuration not stated),outcome,[1],inactive
same,AC50,[2],inconclusive: 23 µM
same,AC50,[3],inconclusive: 23 µM
same,AC50,[4],inconclusive: 46.1 µM
CC1COC(=O)O1 (configuration not stated),AC50,[1],inconclusive: 46.1 µM and inconclusive: 47.3 µM
same,AC50,[2],inconclusive: 46.1 µM and inconclusive: 47.3 µM
same,AC50,[3],inconclusive: 46.1 µM and inconclusive: 47.3 µM
same,AC50,[4],inconclusive: 46.1 µM and inconclusive: 47.3 µM
C=CC(=O)OCC(CO)(COCC(COC(=O)C=C)(COC(=O)C=C)COC(=O)C=C)COC(=O)C=C,AC50,[1],active: 3.32 µM
same,AC50,[2],active: 82.5 µM
same,AC50,[3],active: 2.74 µM
same,AC50,[4],active: 65 µM
CC=O,AC50,[1],active: 47.9 µM
same,AC50,[2],active: 30.3 µM
same,AC50,[3],active: 74.4 µM
same,AC50,[4],active: 62.6 µM
O=C1OC2(c3ccccc31)c1cc(I)c(O)c(I)c1Oc1c2cc(I)c(O)c1I,AC50,[1],active: 58.1 µM and inconclusive: 28.8 µM
same,AC50,[2],active: 83 µM
same,AC50,[3],inconclusive: 27.6 µM and inconclusive: 23 µM
same,AC50,[4],active: 73.9 µM
C1N2CN3CN1CN(C2)C3,AC50,[1],inconclusive: 47 µM
same,AC50,[2],inconclusive: 47 µM and inconclusive: 45.8 µM and inconclusive: 23 µM
same,AC50,[3],inconclusive: 47 µM and inconclusive: 0.0121 nM
same,AC50,[4],inconclusive: 45.8 µM
Sc1nc2ccccc2s1,AC50,[1],active: 0.00175 µM
same,outcome,[2],inactive
same,AC50,[3],active: 0.000128 µM
same,outcome,[4],inactive
CC1(C)CCC(C)(C)c2cc(C(=O)Nc3ccc(C(=O)O)cc3)ccc21,AC50,[1],active: 32.5 µM
same,AC50,[2],active: 46.2 µM
same,AC50,[3],active: 39.5 µM
same,AC50,[4],active: 46.9 µM
CC1CCC2CC1C2(C)C (configuration not stated),AC50,[1],inconclusive: 78.7 µM and inconclusive: 44.6 µM
same,AC50,[2],inconclusive: 44.6 µM
same,outcome,[3],inactive
same,AC50,[4],inconclusive: 46.1 µM and inconclusive: 44.6 µM
CCc1cc(Cc2cc(CC)cc(C(C)(C)C)c2O)c(O)c(C(C)(C)C)c1,AC50,[1],active: 5.48 µM
same,AC50,[2],active: 29.3 µM
same,AC50,[3],active: 20.1 µM
same,AC50,[4],active: 10.8 µM
C=C/C(C)=C/C/C=C(\C)CCC=C(C)C,AC50,[1],inconclusive: 46.1 µM
same,AC50,[2],inconclusive: 76.8 µM
same,outcome,[3],inactive
same,AC50,[4],inconclusive: 34.1 µM
CCCCCC[C@@H](O)C/C=C\CCCCCCCC(=O)O,AC50,[1],active: 40.5 µM and active: 27.9 µM and inconclusive: 23 µM
same,AC50,[2],active: 37.4 µM and inconclusive: 23 µM
same,AC50,[3],inconclusive: 0.501 µM
same,AC50,[4],active: 73.6 µM
O=S1(=O)CC(Cl)(Cl)C(Cl)(Cl)C1,AC50,[1],active: 9.34 µM
same,AC50,[2],active: 39.4 µM
same,AC50,[3],active: 6.87 µM
same,AC50,[4],active: 39 µM
[Cl][Nd]([Cl])[Cl],outcome,[1],inactive
same,outcome,[2],inactive
same,AC50,[3],inconclusive: 0.000111 µM
same,AC50,[4],inconclusive: 46.1 µM
COc1ccc(OC)cc1,outcome,[1],inactive
same,outcome,[2],inactive
same,AC50,[3],inconclusive: 46.8 µM
same,outcome,[4],inactive
Cn1c(=O)cc(Oc2ccc(F)cc2F)c2cnc(NCC(C)(C)O)nc21,outcome,[5],inactive
O=C(O)CCCCC1CCSS1 (configuration not stated),AC50,[1],inconclusive: 46 µM and inconclusive: 23 µM
same,AC50,[2],inconclusive: 9.14 µM and inconclusive: 45.6 µM and inconclusive: 23 µM
same,AC50,[4],inconclusive: 46 µM
O=C(Nc1ccc(Cl)c(Cl)c1)c1cc(Cl)cc(Cl)c1O,AC50,[1],active: 0.671 µM
same,AC50,[2],active: 1.45 µM
same,AC50,[4],active: 2.77 µM
CN(C)c1ccc(C(=C2C=CC(=[N+](C)C)C=C2)c2ccccc2)cc1,AC50,[1],active: 1.36 µM and active: 23 µM
same,AC50,[2],active: 19.2 µM
same,AC50,[4],active: 15.8 µM
C=CC(C)(CCC=C(C)C)OC(=O)C=Cc1ccccc1 (configuration not stated),outcome,[1],inactive
same,AC50,[2],inconclusive: 72.6 µM
same,AC50,[4],inconclusive: 46.1 µM
[Cl][Bi]([Cl])([c]1ccccc1)([c]1ccccc1)[c]1ccccc1,AC50,[1],active: 11.2 µM
same,AC50,[2],active: 67.7 µM
same,AC50,[4],active: 14.1 µM
c1cc(N(CC2CO2)CC2CO2)ccc1Cc1ccc(N(CC2CO2)CC2CO2)cc1 (configuration not stated),outcome,[1],inactive
same,AC50,[2],active: 55.4 µM
same,AC50,[4],active: 33.1 µM
NC(=O)NC(N)=O,AC50,[1],inconclusive: 46.1 µM and inconclusive: 46.8 µM
same,AC50,[2],inconclusive: 46.8 µM
same,AC50,[4],inconclusive: 46.8 µM
CC(O)C(C)O (configuration not stated),AC50,[1],inconclusive: 68.1 µM
same,AC50,[2],inconclusive: 68.1 µM
same,AC50,[4],inconclusive: 68.1 µM
CCCCCCCCCCCCN1CCOCC1,AC50,[1],inconclusive: 78.3 µM
same,outcome,[2],inactive
same,AC50,[4],inconclusive: 46.1 µM
CC1(C)[C@@H]2CC[C@@]1(C)[C@H](O)C2,AC50,[1],inconclusive: 46.1 µM
same,AC50,[2],inconclusive: 46.1 µM
same,AC50,[4],inconclusive: 46.1 µM
CCCCCCOC(=O)c1ccc(O)cc1,AC50,[1],active: 43.2 µM and active: 64.2 µM
same,AC50,[2],active: 70.6 µM and active: 76.8 µM
same,AC50,[4],active: 67.3 µM and active: 80 µM

# Reference: PubChem BioAssay (EPA / NIEHS)
